Experimental data reported in patent US20110064746A1 (published 2011).
No constants are given. Whether binding was seen depends on the method and setting. For some assays here: Binding seen in cells or lysates may run through a third protein. Some entries that bind do so weakly or less than the wild type. For some assays here: Where a sequence is shown, tags or fusion partners need not be part of it. Each block holds one molecule with its values, some of them ahead of it.

Sequences of proteins named here, by UniProt entry; tags and fusion partners are left off. Residues count along the entry.
UniProt P63158: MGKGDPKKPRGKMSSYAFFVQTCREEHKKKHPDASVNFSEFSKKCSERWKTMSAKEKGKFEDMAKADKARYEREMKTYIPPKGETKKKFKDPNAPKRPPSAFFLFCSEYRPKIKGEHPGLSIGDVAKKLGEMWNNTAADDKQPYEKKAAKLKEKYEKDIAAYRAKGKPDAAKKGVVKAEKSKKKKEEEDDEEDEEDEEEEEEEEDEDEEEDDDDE
UniProt P09429: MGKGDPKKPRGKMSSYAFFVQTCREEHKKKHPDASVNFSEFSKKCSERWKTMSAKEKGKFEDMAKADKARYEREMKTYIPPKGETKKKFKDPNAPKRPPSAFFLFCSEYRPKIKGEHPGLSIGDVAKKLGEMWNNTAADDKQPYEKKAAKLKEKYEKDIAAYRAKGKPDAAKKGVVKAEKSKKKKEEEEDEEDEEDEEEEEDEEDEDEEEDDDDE
UniProt P24807, residues 27-53: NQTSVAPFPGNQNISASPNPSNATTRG

Legend:
mouse HMGB1 (mouse) [1] = molecular target: mouse HMGB1 (mouse) (UniProt P63158); assay: co-immunoprecipitation from mouse splenocyte lysates, Western blot; eluted by EDTA
mouse HMGB1 (mouse) [2] = molecular target: mouse HMGB1 (mouse) (UniProt P63158); assay: co-immunoprecipitation and reciprocal immunoprecipitation from WT splenocyte lysates
Siglec-G (mouse) = molecular target: T1, Siglec-G (mouse) (UniProt Q80ZE3); assay: flow cytometry with biotinylated CD24-Fc on WT and Siglecg-/- splenocytes
T1 sequence (looked up): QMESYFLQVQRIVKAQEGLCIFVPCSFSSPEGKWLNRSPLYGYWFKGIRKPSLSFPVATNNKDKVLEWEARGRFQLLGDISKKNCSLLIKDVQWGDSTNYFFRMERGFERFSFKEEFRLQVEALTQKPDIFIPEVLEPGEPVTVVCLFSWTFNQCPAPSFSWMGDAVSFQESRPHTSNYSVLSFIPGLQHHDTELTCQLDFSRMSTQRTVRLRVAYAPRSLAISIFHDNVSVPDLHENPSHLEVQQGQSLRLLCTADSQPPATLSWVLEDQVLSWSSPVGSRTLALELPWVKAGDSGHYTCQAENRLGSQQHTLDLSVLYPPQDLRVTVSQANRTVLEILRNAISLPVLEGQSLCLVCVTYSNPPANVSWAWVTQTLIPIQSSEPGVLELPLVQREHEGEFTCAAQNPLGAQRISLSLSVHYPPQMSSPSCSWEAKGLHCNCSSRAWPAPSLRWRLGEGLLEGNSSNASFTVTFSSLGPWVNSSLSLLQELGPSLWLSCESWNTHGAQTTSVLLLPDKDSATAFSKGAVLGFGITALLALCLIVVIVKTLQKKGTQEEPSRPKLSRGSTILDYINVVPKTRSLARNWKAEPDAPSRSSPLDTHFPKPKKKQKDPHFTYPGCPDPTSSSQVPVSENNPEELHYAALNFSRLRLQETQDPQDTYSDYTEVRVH

[3] = molecular target: FLAG-tagged full-length human HMGB1 (F) (human) (UniProt P09429); assay: precipitation of COS7 lysates with CD24Fc, anti-FLAG blot
mouse CD24 (mouse) [4] = molecular target: mouse CD24 (mouse) (UniProt P24807); assay: flow cytometry on WT and CD24-/- splenocytes
mouse CD24 (mouse) [5] = molecular target: mouse CD24 (mouse) (UniProt P24807); assay: splenocytes incubated on plates coated with Siglec-Fc, optical density
mouse CD24 (mouse) [6] = molecular target: mouse CD24 (mouse) (UniProt P24807); assay: flow cytometry of Siglec 10Fc on spleen cells of sham-surgery and CLP mice
mouse CD24 (mouse) [7] = molecular target: mouse CD24 (mouse) (UniProt P24807); assay: immunoprecipitation of spleen cell lysates with anti-Siglec-G antisera, Western blot

B1: CD24-Fc fusion protein (Fc fusion, human, UniProt P25063 27-56, looked up, not shown: a dimerising Fc or GST)
chain: SETTTGTSSNSSQSTSNSGLAPNPTNATTK
modifications: sialylated glycans; biotinylated in some assays
binding (Siglec-G (mouse)): binds | binding [3]: binds

B2: Siglec-10-Fc (Fc fusion, human, UniProt Q96LC7 17-550, looked up, not shown: a dimerising Fc or GST)
chain: MDGRFWIRVQESVMVPEGLCISVPCSFSYPRQDWTGSTPAYGYWFKAVTETTKGAPVATNHQSREVEMSTRGRFQLTGDPAKGNCSLVIRDAQMQDESQYFFRVERGSYVRYNFMNDGFFLKVTALTQKPDVYIPETLEPGQPVTVICVFNWAFEECPPPSFSWTGAALSSQGTKPTTSHFSVLSFTPRPQDHNTDLTCHVDFSRKGVSAQRTVRLRVAYAPRDLVISISRDNTPALEPQPQGNVPYLEAQKGQFLRLLCAADSQPPATLSWVLQNRVLSSSHPWGPRPLGLELPGVKAGDSGRYTCRAENRLGSQQRALDLSVQYPPENLRVMVSQANRTVLENLGNGTSLPVLEGQSLCLVCVTHSSPPARLSWTQRGQVLSPSQPSDPGVLELPRVQVEHEGEFTCHARHPLGSQHVSLSLSVHYSPKLLGPSCSWEAEGLHCSCSSQASPAPSLRWWLGEELLEGNSSQDSFEVTPSSAGPWANSSLSLHGGLSSGLRLRCEAWNVHGAQSGSILQLPDKKGLISTAFSN
binding (mouse CD24 (mouse) [4]): binds | binding (mouse CD24 (mouse) [5]): binds | binding (mouse CD24 (mouse) [6]): binds

Second part, the molecule after the results:

binding (mouse HMGB1 (mouse) [1]): binds | binding (mouse HMGB1 (mouse) [2]): binds
Molecule: mouse CD24 (from UniProt P24807 27-53) (receptor)

binding (mouse CD24 (mouse) [7]): binds
B3: Siglec-G (receptor, mouse, UniProt Q80ZE3 18-688, looked up)
chain: T1 sequence (looked up)
